Article PMC8854732
These are yes or no findings as the source states them, for the method shown. In cells and extracts the contact can be indirect. These calls come from enrichment with a bait or labelling near it, and not all partners need be listed.

Protein sequences, listed by entry. Tags and fused reporters are not part of them.
UniProt Q5UIP0: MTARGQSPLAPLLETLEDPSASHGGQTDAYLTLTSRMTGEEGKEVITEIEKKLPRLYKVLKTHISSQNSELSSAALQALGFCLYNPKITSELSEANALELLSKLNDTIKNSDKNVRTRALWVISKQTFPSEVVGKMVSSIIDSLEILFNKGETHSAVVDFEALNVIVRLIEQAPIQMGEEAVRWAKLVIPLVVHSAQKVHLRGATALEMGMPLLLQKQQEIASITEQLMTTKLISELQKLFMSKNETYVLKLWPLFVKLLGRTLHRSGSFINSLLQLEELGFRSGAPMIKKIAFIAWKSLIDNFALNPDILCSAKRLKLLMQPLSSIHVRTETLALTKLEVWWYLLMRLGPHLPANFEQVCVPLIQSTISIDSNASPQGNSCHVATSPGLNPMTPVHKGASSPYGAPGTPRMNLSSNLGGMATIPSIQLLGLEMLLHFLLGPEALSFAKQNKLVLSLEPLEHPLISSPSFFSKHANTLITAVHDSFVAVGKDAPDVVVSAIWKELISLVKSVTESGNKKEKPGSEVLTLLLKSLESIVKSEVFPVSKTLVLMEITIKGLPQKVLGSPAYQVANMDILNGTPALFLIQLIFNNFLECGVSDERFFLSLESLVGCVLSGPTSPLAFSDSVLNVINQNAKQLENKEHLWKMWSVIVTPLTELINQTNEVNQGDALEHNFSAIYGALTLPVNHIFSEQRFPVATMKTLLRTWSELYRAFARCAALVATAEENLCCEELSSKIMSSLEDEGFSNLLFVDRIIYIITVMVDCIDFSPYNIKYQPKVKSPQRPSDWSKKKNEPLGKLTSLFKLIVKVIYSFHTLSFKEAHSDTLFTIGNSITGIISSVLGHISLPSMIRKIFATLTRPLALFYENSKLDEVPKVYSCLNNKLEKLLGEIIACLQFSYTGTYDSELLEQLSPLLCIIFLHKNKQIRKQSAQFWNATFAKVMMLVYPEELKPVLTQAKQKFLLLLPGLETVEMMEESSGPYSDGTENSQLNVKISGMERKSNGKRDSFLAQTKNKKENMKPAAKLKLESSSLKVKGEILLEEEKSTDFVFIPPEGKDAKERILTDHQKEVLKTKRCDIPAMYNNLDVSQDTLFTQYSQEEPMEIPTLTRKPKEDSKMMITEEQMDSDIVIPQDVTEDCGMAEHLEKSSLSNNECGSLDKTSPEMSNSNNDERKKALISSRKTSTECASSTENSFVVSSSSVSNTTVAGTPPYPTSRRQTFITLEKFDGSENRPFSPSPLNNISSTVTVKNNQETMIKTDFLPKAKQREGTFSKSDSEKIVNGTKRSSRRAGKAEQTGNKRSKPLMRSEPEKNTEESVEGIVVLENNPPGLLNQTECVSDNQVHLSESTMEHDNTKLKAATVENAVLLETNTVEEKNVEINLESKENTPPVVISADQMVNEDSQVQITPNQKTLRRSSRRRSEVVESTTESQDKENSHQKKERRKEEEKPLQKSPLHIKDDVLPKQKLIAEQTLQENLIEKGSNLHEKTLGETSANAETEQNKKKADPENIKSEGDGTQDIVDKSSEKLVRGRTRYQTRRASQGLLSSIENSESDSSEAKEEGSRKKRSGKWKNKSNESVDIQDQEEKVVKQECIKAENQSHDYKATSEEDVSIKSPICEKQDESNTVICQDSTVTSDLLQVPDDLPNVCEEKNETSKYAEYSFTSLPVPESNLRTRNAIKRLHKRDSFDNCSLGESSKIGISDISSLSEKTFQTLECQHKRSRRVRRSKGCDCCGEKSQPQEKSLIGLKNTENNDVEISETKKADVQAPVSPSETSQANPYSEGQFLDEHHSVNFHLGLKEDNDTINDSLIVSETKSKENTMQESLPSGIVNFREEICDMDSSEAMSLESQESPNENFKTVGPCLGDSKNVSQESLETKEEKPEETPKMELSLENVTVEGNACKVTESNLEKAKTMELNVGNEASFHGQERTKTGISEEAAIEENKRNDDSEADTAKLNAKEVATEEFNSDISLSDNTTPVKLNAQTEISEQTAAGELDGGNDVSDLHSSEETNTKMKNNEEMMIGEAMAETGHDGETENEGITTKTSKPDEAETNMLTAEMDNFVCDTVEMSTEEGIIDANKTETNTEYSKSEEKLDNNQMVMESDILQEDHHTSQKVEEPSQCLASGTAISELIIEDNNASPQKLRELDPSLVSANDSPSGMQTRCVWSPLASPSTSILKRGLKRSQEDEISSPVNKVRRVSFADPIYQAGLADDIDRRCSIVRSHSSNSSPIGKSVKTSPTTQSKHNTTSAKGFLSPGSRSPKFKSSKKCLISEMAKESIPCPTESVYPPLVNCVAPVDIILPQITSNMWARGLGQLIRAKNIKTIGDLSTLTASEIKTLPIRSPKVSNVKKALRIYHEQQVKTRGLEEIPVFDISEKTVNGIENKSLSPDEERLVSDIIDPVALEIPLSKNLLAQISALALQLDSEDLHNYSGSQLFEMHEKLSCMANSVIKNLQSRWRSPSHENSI
UniProt Q9NVP2: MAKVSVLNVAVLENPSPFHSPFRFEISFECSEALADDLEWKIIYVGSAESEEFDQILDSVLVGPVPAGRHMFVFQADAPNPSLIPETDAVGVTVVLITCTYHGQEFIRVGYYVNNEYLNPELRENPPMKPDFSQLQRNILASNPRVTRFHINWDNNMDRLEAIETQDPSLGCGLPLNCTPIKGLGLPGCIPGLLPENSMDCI
UniProt Q9Y294: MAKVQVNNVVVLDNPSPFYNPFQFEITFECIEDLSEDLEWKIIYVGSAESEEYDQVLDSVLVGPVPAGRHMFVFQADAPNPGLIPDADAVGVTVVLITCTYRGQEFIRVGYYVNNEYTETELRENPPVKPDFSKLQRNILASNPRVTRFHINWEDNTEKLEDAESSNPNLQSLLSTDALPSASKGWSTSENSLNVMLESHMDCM

Tests used:
Assay in all cases: affinity purification with mass spectrometry; anti-FLAG M2 agarose IP from extracts of HEK293 cells expressing the FLAG-tagged bait, NTEN lysis buffer (150 mM NaCl, 0.5% NP-40), 4 °C 4 h, elution with 3× Flag peptide, mass spectrometry; mock HEK293 cells as control
FLAG-tagged RIF1 = FLAG-tagged RIF1 (UniProt Q5UIP0)
FLAG-tagged ASF1b = FLAG-tagged ASF1b (UniProt Q9NVP2)
FLAG-tagged ASF1a = FLAG-tagged ASF1a (UniProt Q9Y294)

binding (FLAG-tagged RIF1)	binding (FLAG-tagged ASF1b)	binding (FLAG-tagged ASF1a)	Substance
binds			ASF1a (endogenous, HEK293) (from UniProt Q9Y294 1-204)
	binds	binds	RIF1 (endogenous, HEK293) (from UniProt Q5UIP0 1-2472)
